Test results reported in paper PMC3846774.
These are yes or no findings as the source states them, for the method shown. Some binding calls cover weakened binding; strength is not graded here. Tags and fused reporters may be left off the sequences shown. Blank lines part the entries; values can stand above or below the binder they belong to.

Key:
Experiment in all cases: tandem affinity purification (TAP) with Western blotting; TAP-tagged bait purified from yeast cells expressing Mak5-GFP; 50 mM Tris-HCl pH 7.5, 100 mM NaCl, 1.5 mM MgCl2, 5% glycerol, 0.1% NP-40; TEV cleavage, elution from Calmodulin-Sepharose with 5 mM EGTA; eluates blotted with anti-GFP, anti-Nop7, anti-Ebp2, anti-Rpl3
Nsa1-TAP (S. cerevisiae) = target: T1, Nsa1-TAP (S. cerevisiae) (UniProt P53136)
T1 sequence: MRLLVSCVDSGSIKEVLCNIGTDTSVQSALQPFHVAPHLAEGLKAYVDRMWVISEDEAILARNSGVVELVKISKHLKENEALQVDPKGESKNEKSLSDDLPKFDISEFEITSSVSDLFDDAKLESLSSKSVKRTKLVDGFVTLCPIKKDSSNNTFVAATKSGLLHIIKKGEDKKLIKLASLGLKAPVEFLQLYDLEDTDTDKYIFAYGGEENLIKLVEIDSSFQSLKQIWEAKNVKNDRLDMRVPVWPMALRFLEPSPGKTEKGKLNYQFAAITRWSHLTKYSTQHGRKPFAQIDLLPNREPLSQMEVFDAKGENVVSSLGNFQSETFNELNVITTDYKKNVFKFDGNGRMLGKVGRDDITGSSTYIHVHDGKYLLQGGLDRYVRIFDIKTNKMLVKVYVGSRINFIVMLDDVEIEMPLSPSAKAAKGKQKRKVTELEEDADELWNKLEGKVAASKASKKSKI

Rix1-TAP (S. cerevisiae) = target: T2, Rix1-TAP (S. cerevisiae) (UniProt P38883)
T2 sequence: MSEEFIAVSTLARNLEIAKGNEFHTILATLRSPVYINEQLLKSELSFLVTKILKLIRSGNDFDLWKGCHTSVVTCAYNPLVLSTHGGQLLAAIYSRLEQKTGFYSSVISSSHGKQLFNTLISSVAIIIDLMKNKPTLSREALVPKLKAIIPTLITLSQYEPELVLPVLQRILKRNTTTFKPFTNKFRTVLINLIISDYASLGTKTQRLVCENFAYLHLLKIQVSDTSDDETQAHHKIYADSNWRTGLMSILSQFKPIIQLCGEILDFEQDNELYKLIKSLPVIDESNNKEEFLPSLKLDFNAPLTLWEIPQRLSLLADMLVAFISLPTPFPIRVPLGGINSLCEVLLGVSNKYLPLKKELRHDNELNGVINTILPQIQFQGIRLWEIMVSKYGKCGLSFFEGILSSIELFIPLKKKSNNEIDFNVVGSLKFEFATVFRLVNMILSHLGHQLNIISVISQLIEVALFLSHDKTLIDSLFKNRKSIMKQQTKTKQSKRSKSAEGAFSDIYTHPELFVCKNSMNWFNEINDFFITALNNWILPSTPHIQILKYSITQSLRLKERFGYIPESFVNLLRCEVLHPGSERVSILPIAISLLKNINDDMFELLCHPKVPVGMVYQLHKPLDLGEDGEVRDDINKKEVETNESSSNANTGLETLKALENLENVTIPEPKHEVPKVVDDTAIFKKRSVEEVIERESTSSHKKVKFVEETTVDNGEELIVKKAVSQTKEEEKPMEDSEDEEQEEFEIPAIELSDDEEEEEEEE

Lsg1-TAP (S. cerevisiae) = target: T3, Lsg1-TAP (S. cerevisiae) (UniProt P53145)
T3 sequence: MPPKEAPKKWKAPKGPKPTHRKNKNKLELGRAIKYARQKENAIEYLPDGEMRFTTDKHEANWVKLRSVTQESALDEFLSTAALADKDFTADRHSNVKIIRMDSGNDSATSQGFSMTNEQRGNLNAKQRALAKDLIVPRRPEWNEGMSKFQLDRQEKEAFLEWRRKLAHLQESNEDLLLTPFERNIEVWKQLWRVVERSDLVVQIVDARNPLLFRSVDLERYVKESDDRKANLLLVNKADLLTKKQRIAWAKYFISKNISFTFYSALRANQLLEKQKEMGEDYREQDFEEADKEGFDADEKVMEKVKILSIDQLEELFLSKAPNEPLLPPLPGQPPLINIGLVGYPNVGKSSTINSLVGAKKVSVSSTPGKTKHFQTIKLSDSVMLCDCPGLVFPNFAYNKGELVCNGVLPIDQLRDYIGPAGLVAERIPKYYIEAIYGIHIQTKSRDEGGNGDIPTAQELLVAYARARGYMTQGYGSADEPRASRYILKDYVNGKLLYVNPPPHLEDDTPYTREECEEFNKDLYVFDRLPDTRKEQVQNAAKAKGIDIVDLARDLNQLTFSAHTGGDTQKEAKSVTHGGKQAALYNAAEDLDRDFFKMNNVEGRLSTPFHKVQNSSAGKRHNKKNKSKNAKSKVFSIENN

Arx1-TAP (S. cerevisiae) = target: T4, Arx1-TAP (S. cerevisiae) (UniProt Q03862)
T4 sequence: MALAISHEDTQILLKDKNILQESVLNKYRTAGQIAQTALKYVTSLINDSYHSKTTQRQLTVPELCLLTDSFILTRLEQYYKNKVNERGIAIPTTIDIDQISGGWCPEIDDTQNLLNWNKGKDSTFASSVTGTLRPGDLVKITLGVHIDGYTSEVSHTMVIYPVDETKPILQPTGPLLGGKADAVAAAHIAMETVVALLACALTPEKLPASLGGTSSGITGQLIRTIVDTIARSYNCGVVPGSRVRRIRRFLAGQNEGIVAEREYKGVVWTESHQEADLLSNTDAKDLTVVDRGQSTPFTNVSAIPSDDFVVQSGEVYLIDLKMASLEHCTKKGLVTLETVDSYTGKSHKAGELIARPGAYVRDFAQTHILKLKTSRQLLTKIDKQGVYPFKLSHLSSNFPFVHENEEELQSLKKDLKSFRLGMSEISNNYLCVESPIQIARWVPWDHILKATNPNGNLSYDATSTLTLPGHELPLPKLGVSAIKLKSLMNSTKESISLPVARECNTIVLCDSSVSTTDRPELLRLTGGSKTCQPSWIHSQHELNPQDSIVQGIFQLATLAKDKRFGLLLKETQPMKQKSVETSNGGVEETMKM

Ssf1-TAP (S. cerevisiae) = target: T5, Ssf1-TAP (S. cerevisiae) (UniProt P38789)
T5 sequence: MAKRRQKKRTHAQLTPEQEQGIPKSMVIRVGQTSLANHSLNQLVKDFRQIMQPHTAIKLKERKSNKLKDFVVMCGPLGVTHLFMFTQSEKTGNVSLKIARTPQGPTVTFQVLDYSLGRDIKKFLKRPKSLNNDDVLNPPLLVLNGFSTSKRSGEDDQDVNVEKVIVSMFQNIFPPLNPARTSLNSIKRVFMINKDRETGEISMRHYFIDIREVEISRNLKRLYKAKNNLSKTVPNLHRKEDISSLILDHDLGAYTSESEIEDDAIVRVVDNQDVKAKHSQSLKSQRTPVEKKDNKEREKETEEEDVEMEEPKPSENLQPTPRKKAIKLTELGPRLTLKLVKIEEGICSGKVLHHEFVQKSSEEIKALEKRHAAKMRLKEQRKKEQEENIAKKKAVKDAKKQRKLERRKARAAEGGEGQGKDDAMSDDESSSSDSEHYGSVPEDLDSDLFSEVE

[1] = target: T6, Nop7-TAP (S. cerevisiae), P53261; conditions: remark: other sources report otherwise
T6 chain: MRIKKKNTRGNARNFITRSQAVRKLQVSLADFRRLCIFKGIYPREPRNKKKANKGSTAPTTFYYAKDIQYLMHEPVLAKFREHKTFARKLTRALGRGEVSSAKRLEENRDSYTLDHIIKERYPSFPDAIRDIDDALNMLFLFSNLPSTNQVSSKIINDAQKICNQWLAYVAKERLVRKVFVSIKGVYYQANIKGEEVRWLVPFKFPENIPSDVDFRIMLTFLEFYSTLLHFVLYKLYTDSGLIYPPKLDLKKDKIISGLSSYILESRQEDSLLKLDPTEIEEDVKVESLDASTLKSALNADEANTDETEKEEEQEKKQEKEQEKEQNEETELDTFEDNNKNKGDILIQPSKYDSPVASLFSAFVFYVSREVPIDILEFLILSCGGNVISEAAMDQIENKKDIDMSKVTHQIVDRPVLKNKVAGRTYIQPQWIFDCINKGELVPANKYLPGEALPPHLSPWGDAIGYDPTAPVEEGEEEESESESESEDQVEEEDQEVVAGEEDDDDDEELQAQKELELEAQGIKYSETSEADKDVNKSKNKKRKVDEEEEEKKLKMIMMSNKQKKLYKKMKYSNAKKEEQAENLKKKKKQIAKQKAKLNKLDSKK

- binding (Nsa1-TAP (S. cerevisiae)): binds
- binding (Rix1-TAP (S. cerevisiae)): no binding
B1: Ebp2 (protein, UniProt P36049 1-427)
chain: MAKGFKLKELLSHQKEIEKAEKLENDLKKKKSQELKKEEPTIVTASNLKKLEKKEKKADVKKEVAADTEEYQSQALSKKEKRKLKKELKKMQEQDATEAQKHMSGDEDESGDDREEEEEEEEEEEGRLDLEKLAKSDSESEDDSESENDSEEDEDVVAKEESEEKEEQEEEQDVPLSDVEFDSDADVVPHHKLTVNNTKAMKHALERVQLPWKKHSFQEHQSVTSETNTDEHIKDIYDDTERELAFYKQSLDAVLVARDELKRLKVPFKRPLDYFAEMVKSDEHMDKIKGKLIEEASDKKAREEARRQRQLKKFGKQVQNATLQKRQLEKRETLEKIKSLKNKRKHNEIDHSEFNVGVEEEVEGKRFDRGRPNGKRAAKNAKYGQGGMKRFKRKNDATSSADVSGFSSRKMKGKTNRPGKSRRARRF

- binding (Nsa1-TAP (S. cerevisiae)): binds weakly
- binding (Lsg1-TAP (S. cerevisiae)): no binding
- binding (Arx1-TAP (S. cerevisiae)): no binding
- binding (Rix1-TAP (S. cerevisiae)): no binding
- binding (Ssf1-TAP (S. cerevisiae)): binds weakly
B2: Mak5-GFP (protein, UniProt P38112 1-773)
chain: MGKKRAPQKGKTVTKPQEIIVDESKLNWKPVDIPDTLDDFGGFYGLEEIDGVDVKVVDGKVTFVTKKDSKVLKDSNKEKVGDDQESVENESGSDSESELLEFKNLDDIKEGELSAASYSSSDEDEQGNIESSKLTDPSEDVDEDVDEDVLKENVFNKDINIDDISPVNLPEWTNLAPLSMTILQSLQNLNFLRPTEIQKKSIPVIMQGVDVMGKASTGSGKTLAYGIPIVEKLISNFSQKNKKPISLIFTPTRELAHQVTDHLKKICEPVLAKSQYSILSLTGGLSIQKQQRLLKYDNSGQIVIATPGRFLELLEKDNTLIKRFSKVNTLILDEADRLLQDGHFDEFEKIIKHLLVERRKNRENSEGSSKIWQTLIFSATFSIDLFDKLSSSRQVKDRRFKNNEDELNAVIQHLMSKIHFNSKPVIIDTNPESKVSSQIKESLIECPPLERDLYCYYFLTMFPGTTLIFCNAIDSVKKLTVYLNNLGIPAFQIHSSMTQKNRLKSLERFKQQSAKQKTINHSNPDSVQLSTVLIASDVAARGLDIPGVQHVIHYHLPRSTDIYIHRSGRTARAGSEGVSAMICSPQESMGPLRKLRKTLATKNSVSTDLNSRSTNRKPIKWQNTVPLLPIETDILSQLRERSRLAGELADHEIASNSLRKDDNWLKKAADELGIDVDSDEDDISKSNSDTFLLKNKNKKMQKTINKDKVKAMRATLNELLSVPIRKDRRQKYLTGGLVNLADNLVKKRGHNSIIGHEKTNALETLKKKKKRNN

- binding [1]: no binding
B3: Mak5-GFP, P38112 1-773 (protein)
chain: B2 chain
